PubChem BioAssay AID1259425 – University of Nebraska Medical Center | 2018

Test: 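Find knockdowns that reproduce the gene expression pattern seen when KSR1 is lost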 (primary screen)
Cell system: HCT116 human colon cancer cells
Reagent: siRNA pool against human genes, 50 nM siRNA
Read-out: 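mRNA of six signature genes measured together by branched-DNA assay after 50 nM siRNA pool, blank removed, divided by geometric mean of two housekeeping genes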
Direction: BNIP3L mRNA: higher = more BNIP3L transcript after knockdown
In all, the deposit lists about 14,000 reagents; this is an unselected part. Further read-outs or replicates are left out here. Not stated in the record: the time to read-out.

gene symbol,"BNIP3L mRNA, set 1"
CADM1 (cell adhesion molecule 1),0.0828
CHRFAM7A (CHRNA7 (exons 5-10) and FAM7A (exons A-E) fusion),0.115
ORC5 (origin recognition complex subunit 5),0.102
PLXNA2 (plexin A2),0.124
MSR1 (macrophage scavenger receptor 1),0.0872
PCDHB11 (protocadherin beta 11),0.0376
"B3GALT2 (beta-1,3-galactosyltransferase 2)",0.206
MGAT1,0.115
CDK11B (cyclin dependent kinase 11B),0.0861
MELK (maternal embryonic leucine zipper kinase),0.147
NFE2L2 (NFE2 like bZIP transcription factor 2),0.0772
LRRC31 (leucine rich repeat containing 31),0.33
MED18 (mediator complex subunit 18),0.125
UACA,0.049
NDFIP2 (Nedd4 family interacting protein 2),0.0403
GPM6A (glycoprotein M6A),0.0912
CD96 (CD96 molecule),0.232
SYT3 (synaptotagmin 3),0.217
CFAP300 (cilia and flagella associated protein 300),0.117
COL16A1 (collagen type XVI alpha 1 chain),0.073
RSF1 (remodeling and spacing factor 1),0.102
EMC1 (ER membrane protein complex subunit 1),0.0795
CELSR3 (cadherin EGF LAG seven-pass G-type receptor 3),0.247
S100A12 (S100 calcium binding protein A12),0.146
UBR7 (ubiquitin protein ligase E3 component n-recognin 7),0.0678
TMEM134 (transmembrane protein 134),0.175
MRPS21 (mitochondrial ribosomal protein S21),0.0584
CARM1 (coactivator associated arginine methyltransferase 1),0.23
ARMCX2 (armadillo repeat containing X-linked 2),0.163
"SEC31A (SEC31 homolog A, COPII component)",0.161
MBNL1 (muscleblind like splicing regulator 1),0.0899
KLF6 (KLF transcription factor 6),0.0906
ZGRF1 (zinc finger GRF-type containing 1),0.149
SUFU (SUFU negative regulator of hedgehog signaling),0.0533
KDSR (3-ketodihydrosphingosine reductase),0.0806
GPR65 (G protein-coupled receptor 65),0.127
KPNB1 (karyopherin subunit beta 1),0.0835
PRR3 (proline rich 3),0.0993
DNMT1 (DNA methyltransferase 1),0.209
ATP13A1 (ATPase 13A1),0.119
AGMAT (agmatinase (putative)),0.13
CRTC3 (CREB regulated transcription coactivator 3),0.107
PPFIA4 (PPFI scaffold protein A4),0.0965
MFNG (MFNG O-fucosylpeptide 3-beta-N-acetylglucosaminyltransferase),0.085
FLJ10246 (retired record),0.169
BRIX1 (biogenesis of ribosomes BRX1),0.198
FUT9 (fucosyltransferase 9),0.0753
MRNIP (MRN complex interacting protein),0.0983
CIDEB (cell death inducing DFFA like effector b),0.0512
ELP1 (elongator acetyltransferase complex subunit 1),0.0747

7 consecutive records already listed, quoted:
gene symbol,"BNIP3L mRNA, set 1"
COL16A1 (collagen type XVI alpha 1 chain),0.073
RSF1 (remodeling and spacing factor 1),0.102
EMC1 (ER membrane protein complex subunit 1),0.0795
CELSR3 (cadherin EGF LAG seven-pass G-type receptor 3),0.247
S100A12 (S100 calcium binding protein A12),0.146
UBR7 (ubiquitin protein ligase E3 component n-recognin 7),0.0678
TMEM134 (transmembrane protein 134),0.175
